The values below come from publication doi:10.1101/2023.07.26.549647.

Sequences of proteins named here, by UniProt entry; tags and fusion partners are left off.
UniProt Q15058: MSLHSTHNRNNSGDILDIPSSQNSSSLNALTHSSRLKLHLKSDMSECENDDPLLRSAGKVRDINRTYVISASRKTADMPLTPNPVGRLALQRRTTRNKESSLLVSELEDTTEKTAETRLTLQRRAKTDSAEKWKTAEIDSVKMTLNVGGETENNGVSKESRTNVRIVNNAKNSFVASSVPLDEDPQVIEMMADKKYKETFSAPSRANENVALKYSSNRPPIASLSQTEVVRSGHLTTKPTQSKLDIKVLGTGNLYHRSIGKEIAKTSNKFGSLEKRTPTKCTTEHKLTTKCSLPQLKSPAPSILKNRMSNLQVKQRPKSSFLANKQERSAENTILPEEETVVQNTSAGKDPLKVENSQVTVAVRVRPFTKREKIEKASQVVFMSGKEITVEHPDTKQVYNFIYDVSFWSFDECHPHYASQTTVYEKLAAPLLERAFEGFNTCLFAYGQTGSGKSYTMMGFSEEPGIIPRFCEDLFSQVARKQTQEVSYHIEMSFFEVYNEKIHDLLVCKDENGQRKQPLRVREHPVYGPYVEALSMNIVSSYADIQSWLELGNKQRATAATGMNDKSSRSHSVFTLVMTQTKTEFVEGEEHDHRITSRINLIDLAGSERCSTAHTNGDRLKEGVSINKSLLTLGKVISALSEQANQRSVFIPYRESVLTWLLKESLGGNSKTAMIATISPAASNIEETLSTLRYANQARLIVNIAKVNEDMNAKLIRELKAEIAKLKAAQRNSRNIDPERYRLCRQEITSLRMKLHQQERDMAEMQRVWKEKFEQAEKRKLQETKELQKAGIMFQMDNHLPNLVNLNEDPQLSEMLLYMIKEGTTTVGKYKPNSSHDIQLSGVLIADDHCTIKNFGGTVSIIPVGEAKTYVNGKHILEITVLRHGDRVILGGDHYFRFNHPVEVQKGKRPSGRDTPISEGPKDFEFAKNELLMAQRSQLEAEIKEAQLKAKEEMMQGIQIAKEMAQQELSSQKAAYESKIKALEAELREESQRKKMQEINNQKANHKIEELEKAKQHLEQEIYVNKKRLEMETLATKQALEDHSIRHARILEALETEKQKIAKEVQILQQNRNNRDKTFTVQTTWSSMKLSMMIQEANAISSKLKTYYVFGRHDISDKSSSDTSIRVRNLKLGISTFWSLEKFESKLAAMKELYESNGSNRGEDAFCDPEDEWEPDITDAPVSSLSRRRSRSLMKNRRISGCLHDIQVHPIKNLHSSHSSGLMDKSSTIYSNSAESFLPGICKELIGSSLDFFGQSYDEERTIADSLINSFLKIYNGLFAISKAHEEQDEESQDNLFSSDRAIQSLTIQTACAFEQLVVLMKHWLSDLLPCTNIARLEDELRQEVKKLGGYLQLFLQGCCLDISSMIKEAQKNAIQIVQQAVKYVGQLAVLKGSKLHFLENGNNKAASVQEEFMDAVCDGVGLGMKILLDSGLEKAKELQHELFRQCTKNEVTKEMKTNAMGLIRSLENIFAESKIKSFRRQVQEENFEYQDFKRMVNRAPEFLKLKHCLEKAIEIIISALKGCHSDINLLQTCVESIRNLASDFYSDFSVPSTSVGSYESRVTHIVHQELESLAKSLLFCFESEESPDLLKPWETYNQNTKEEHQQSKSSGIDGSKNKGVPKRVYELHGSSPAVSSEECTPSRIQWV
UniProt P57678: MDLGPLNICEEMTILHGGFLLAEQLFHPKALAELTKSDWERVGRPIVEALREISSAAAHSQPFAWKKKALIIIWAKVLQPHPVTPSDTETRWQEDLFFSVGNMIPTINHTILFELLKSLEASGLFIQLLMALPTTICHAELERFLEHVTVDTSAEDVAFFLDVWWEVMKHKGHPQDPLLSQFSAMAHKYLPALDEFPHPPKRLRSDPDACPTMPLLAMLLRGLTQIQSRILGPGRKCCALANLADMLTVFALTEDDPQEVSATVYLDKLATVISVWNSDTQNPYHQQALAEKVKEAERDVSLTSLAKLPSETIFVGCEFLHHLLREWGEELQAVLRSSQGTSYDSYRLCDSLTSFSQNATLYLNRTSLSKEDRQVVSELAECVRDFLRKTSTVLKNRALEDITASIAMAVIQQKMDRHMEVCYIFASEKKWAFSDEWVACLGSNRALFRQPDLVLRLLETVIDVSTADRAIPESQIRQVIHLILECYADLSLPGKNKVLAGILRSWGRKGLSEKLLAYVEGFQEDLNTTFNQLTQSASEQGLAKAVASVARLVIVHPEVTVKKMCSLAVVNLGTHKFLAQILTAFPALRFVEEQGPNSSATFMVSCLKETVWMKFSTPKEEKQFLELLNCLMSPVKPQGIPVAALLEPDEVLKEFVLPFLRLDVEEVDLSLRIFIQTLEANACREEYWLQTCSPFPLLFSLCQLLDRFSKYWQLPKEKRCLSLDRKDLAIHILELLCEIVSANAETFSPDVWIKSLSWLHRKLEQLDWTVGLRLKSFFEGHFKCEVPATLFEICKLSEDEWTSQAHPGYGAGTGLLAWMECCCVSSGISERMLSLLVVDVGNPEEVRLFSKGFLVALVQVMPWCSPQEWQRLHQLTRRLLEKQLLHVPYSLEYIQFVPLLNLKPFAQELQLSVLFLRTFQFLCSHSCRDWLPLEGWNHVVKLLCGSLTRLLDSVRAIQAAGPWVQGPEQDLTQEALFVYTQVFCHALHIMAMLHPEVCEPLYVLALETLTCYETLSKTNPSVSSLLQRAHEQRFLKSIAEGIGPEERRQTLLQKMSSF
UniProt Q68CZ1: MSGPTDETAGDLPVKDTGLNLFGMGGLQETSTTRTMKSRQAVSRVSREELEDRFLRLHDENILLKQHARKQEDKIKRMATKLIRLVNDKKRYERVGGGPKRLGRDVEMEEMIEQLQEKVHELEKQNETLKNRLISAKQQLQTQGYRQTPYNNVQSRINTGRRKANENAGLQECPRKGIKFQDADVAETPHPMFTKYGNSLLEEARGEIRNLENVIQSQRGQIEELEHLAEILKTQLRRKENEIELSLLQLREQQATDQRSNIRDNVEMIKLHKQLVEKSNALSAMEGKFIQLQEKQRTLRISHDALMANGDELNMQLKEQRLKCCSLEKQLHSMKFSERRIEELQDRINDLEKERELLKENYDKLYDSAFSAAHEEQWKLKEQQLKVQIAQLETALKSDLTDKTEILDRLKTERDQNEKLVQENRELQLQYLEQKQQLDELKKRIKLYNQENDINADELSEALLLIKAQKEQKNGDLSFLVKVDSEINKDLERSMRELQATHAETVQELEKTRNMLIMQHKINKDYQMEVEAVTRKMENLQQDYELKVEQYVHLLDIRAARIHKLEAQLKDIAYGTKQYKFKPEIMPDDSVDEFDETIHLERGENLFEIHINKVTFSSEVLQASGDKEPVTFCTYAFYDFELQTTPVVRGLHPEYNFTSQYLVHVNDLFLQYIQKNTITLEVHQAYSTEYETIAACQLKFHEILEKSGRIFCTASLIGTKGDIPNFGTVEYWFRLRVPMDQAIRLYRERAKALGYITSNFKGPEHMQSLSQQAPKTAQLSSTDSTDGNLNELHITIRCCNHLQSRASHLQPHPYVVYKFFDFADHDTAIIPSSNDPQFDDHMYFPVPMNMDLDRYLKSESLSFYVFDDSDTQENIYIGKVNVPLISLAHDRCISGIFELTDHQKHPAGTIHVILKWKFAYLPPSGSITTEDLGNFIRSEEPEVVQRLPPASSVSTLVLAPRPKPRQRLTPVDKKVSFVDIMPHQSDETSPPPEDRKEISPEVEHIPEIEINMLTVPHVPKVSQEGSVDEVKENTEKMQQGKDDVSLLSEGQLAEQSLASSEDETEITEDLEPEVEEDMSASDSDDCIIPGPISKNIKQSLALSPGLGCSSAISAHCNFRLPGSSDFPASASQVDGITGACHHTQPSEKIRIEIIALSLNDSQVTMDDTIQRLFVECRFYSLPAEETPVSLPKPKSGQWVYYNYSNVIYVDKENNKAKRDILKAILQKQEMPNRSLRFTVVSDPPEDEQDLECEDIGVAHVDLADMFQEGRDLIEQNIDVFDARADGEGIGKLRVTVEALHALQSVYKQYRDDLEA
UniProt Q15154: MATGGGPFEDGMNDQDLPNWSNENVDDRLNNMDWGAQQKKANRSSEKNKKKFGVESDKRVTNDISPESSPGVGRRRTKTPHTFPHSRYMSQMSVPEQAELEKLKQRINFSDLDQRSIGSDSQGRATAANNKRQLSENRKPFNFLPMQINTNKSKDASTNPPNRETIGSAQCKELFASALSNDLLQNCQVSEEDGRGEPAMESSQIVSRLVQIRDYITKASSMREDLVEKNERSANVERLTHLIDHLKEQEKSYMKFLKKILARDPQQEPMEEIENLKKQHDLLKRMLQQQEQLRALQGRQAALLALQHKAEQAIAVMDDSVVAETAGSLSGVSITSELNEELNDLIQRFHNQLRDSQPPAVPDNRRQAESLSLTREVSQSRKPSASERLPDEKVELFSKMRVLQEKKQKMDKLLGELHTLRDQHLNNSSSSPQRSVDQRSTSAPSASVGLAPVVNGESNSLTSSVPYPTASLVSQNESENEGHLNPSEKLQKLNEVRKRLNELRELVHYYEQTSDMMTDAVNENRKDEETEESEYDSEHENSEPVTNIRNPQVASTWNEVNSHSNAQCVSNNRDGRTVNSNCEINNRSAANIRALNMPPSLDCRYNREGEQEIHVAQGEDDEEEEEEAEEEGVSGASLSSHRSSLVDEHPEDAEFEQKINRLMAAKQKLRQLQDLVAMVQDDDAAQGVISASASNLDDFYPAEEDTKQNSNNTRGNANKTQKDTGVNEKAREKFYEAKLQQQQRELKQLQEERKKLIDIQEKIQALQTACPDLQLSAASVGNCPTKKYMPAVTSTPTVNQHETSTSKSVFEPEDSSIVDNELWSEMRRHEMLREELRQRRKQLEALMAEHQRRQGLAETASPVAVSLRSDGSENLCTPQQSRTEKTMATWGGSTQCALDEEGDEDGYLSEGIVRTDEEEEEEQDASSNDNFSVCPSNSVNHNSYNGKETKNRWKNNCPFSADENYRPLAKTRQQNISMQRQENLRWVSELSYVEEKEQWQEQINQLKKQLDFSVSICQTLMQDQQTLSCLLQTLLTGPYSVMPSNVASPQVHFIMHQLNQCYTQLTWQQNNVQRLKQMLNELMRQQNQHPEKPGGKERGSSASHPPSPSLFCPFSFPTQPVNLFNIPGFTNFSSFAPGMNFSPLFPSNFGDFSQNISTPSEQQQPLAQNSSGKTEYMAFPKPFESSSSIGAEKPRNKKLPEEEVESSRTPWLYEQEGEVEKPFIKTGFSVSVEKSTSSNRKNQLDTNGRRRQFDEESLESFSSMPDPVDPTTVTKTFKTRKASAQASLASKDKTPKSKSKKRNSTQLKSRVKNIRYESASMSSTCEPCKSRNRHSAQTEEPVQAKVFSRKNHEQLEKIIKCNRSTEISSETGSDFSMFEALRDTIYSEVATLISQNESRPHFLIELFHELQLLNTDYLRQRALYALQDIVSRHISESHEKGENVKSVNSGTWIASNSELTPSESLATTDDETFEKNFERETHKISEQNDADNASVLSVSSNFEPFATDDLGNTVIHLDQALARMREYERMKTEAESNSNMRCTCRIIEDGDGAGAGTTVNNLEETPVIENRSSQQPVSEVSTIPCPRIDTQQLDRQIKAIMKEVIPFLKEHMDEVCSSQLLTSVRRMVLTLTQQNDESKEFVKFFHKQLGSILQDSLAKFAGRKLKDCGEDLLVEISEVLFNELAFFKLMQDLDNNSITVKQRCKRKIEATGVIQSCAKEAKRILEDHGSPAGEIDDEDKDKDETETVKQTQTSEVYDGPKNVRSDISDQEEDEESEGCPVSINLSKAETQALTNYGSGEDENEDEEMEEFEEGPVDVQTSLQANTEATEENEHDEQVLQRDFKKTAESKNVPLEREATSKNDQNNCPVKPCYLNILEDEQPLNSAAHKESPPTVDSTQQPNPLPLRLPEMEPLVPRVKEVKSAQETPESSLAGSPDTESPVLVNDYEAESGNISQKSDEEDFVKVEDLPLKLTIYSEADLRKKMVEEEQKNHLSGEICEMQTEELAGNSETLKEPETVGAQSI

Where two headings read alike, the source gives them in different places. No constants are given. Whether binding was seen depends on the method and setting. In cells and extracts the contact can be indirect. Here binding means that the protein was enriched with, or labelled near, the bait; the list need not be complete. Where a sequence is shown, tags or fusion partners need not be part of it.

For assay [1], the target named is T1, FLAG-BirA*-TBCCD1 (human TBCC domain-containing protein 1) (human) (UniProt Q9NVR7).
T1 sequence: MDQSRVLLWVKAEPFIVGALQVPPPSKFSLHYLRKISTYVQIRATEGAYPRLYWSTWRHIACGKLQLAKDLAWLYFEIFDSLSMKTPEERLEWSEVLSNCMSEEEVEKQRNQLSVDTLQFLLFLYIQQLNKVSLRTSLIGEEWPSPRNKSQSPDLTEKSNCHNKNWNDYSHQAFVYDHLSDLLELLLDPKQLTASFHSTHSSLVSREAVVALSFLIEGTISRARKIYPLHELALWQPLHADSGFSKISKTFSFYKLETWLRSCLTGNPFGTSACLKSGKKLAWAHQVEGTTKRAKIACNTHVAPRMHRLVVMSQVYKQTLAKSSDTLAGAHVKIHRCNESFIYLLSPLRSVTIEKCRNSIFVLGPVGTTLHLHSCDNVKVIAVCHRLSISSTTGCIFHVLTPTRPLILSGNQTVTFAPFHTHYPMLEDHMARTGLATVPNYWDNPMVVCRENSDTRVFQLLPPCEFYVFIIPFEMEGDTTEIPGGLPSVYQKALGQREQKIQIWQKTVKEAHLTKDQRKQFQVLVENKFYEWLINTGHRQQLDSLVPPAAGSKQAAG
Nature of the assay: proximity labelling.

Assay [2] addresses T1, FLAG-BirA*-TBCCD1 (human TBCC domain-containing protein 1) (human). Nature of the assay: proximity labelling. This is another data set of the same source.

Consider CEP152 (from UniProt O94986 1-1710), for which the binding entry in assay [1] is “binds”.

KIF14 (from UniProt Q15058 1-1648): the binding result in assay [1] was “binds”. Still for that read-out and setting: under GEMIN4 (from UniProt P57678 1-1058) stands “binds”. On the same count and under the same terms, the value for RPGRIP1L (from UniProt Q68CZ1 1-1315) was “binds”. On the same count and under the same terms, the value for C2CD3 (from UniProt Q4AC94 1-2353) was “binds”. In the case of PCM1 (from UniProt Q15154 1-2024), the binding result in assay [1] is given as “binds”. With CSPP1 (from UniProt Q1MSJ5 1-1256), the binding result in assay [1] is recorded as “binds”.

B1: KIAA0753/Moonraker/OFIP (protein, UniProt Q2KHM9 1-967)
chain: MGPGQPASTCVHLAPRTQLDGRSDPKVLQTQNQLQFNRNVPTHSSNLAIRYSCPHAIRIEKLKHSYNESYHCKDADCRVGPDLGSSVSFSVISQERLSYAVHLARRDVKRRQFEKHIKEHHLRSQPQSSQKCGHTKYKIPDHRVERKESKSQAACQCSHQPSKVEISSSGAKVYLYSSHPGQSDLTVPNSPPTHDPGLQPHPRIGDHKNISEQKSLLEVQRLQKELSSCIHKIEEVTKKDRLEEALDPDEERRIRIRRQEQAARSARMLYVLQQQVKEIQEELDKLSPHKIKHTKKSWAMSKLAAAHRGAIRALQMFVTQFTDRGEHPLPARCKELGSLIRQLSLCSVKLDADPSVPDVVIDILQQIEALESLLEKKLSPKKVKKCFSEIRSRFPIGSQKALERWPSTSPKGERRPLTAKDTFPQETSRPSVAKQLLADKYQPDTELPETQRLQSELDVLDADIVLEEGPFILDQSASFKDEVLAVAKTKAGKKKPVTENVPFRKKDTLAPARQQGLRKAERGRQSQPHSKSRVQQTTVSSRLKMNRQPVKDRKAPWIPPNPTSPPASPKCAAWLKVKTSPRDATKEPLQQEDPQEESHLTGAVEHEAARLAWLDAETSKRLKELEELKAKEIDSMQKQRLDWLDAETSRRTKELNELKAEEMYRLQQLSVSATHLADKVEEAVLDRLKPLLVKAQRVNSTTEANIHLKDGSSVNTAKAQPAQEVAAVDFESNNIRQLDDFLEDCASELWAVTHAKILGSETLATVEDSKDSPDLEIMMRRMEEMEKYQESVRQRYNKIAYADPRLWMQEENNDQKISAISEKPLSPHPIRITKTVDRKDPAVNIMLERPCNGNSLDESVGTEEGSEKREAPLLSLAEDSQQKEGRAPLFVPPGMQHSIGDYCSRFEQYLRIISHEAVGSFNPWLIAESFSEELVDEALGAVAAELQDMCEDYAEAVFTSEFLEAAT
B1: the binding entry in assay [2] was “binds”.

B2: WASHC4 (protein, UniProt Q2M389 1-1173)
chain: MAVETLSPDWEFDRVDDGSQKIHAEVQLKNYGKFLEEYTSQLRRIEDALDDSIGDVWDFNLDPIALKLLPYEQSSLLELIKTENKVLNKVITVYAALCCEIKKLKYEAETKFYNGLLFYGEGATDASMVEGDCQIQMGRFISFLQELSCFVTRCYEVVMNVVHQLAALYISNKIAPKIIETTGVHFQTMYEHLGELLTVLLTLDEIIDNHITLKDHWTMYKRLLKSVHHNPSKFGIQEEKLKPFEKFLLKLEGQLLDGMIFQACIEQQFDSLNGGVSVSKNSTFAEEFAHSIRSIFANVEAKLGEPSEIDQRDKYVGICGLFVLHFQIFRTIDKKFYKSLLDICKKVPAITLTANIIWFPDNFLIQKIPAAAKLLDRKSLQAIKIHRDTFLQQKAQSLTKDVQSYYVFVSSWMMKMESILSKEQRMDKFAEDLTNRCNVFIQGFLYAYSISTIIKTTMNLYMSMQKPMTKTSVKALCRLVELLKAIEHMFYRRSMVVADSVSHITQHLQHQALHSISVAKKRVISDKKYSEQRLDVLSALVLAENTLNGPSTKQRRLIVSLALSVGTQMKTFKDEELFPLQVVMKKLDLISELRERVQTQCDCCFLYWHRAVFPIYLDDVYENAVDAARLHYMFSALRDCVPAMMHARHLESYEILLDCYDKEIMEILNEHLLDKLCKEIEKDLRLSVHTHLKLDDRNPFKVGMKDLALFFSLNPIRFFNRFIDIRAYVTHYLDKTFYNLTTVALHDWATYSEMRNLATQRYGLVMTEAHLPSQTLEQGLDVLEIMRNIHIFVSRYLYNLNNQIFIERTSNNKHLNTINIRHIANSIRTHGTGIMNTTVNFTYQFLKKKFYIFSQFMYDEHIKSRLIKDIRFFREIKDQNDHKYPFDRAEKFNRGIRKLGVTPEGQSYLDQFRQLISQIGNAMGYVRMIRSGGLHCSSNAIRFVPDLEDIVNFEELVKEEGLAEETLKAARHLDSVLSDHTRNSAEGTEYFKMLVDVFAPEFRRPKNIHLRNFYIIVPPLTLNFVEHSISCKEKLNKKNKIGAAFTDDGFAMGVAYILKLLDQYREFDSLHWFQSVREKYLKEIRAVAKQQNVQSASQDEKLLQTMNLTQKRLDVYLQEFELLYFSLSSARIFFRADKTAAEENQEKKEKEEETKTSNGDLSDSTVSADPVVK
B2: the binding entry in assay [2] is on record as “binds”.

B3: MED4 (protein, UniProt Q9NPJ6 1-270)
chain: MAASSSGEKEKERLGGGLGVAGGNSTRERLLSALEDLEVLSRELIEMLAISRNQKLLQAGEENQVLELLIHRDGEFQELMKLALNQGKIHHEMQVLEKEVEKRDSDIQQLQKQLKEAEQILATAVYQAKEKLKSIEKARKGAISSEEIIKYAHRISASNAVCAPLTWVPGDPRRPYPTDLEMRSGLLGQMNNPSTNGVNGHLPGDALAAGRLPDVLAPQYPWQSNDMSMNMLPPNHSSDFLLEPPGHNKENEDDVEIMSTDSSSSSSESD
With B3, the binding result in assay [2] is given as “binds”.

B4: OFD1 (protein, UniProt O75665 1-1012)
chain: MMAQSNMFTVADVLSQDELRKKLYQTFKDRGILDTLKTQLRNQLIHELMHPVLSGELQPRSISVEGSSLLIGASNSLVADHLQRCGYEYSLSVFFPESGLAKEKVFTMQDLLQLIKINPTSSLYKSLVSGSDKENQKGFLMHFLKELAEYHQAKESCNMETQTSSTFNRDSLAEKLQLIDDQFADAYPQRIKFESLEIKLNEYKREIEEQLRAEMCQKLKFFKDTEIAKIKMEAKKKYEKELTMFQNDFEKACQAKSEALVLREKSTLERIHKHQEIETKEIYAQRQLLLKDMDLLRGREAELKQRVEAFELNQKLQEEKHKSITEALRRQEQNIKSFEETYDRKLKNELLKYQLELKDDYIIRTNRLIEDERKNKEKAVHLQEELIAINSKKEELNQSVNRVKELELELESVKAQSLAITKQNHMLNEKVKEMSDYSLLKEEKLELLAQNKLLKQQLEESRNENLRLLNRLAQPAPELAVFQKELRKAEKAIVVEHEEFESCRQALHKQLQDEIEHSAQLKAQILGYKASVKSLTTQVADLKLQLKQTQTALENEVYCNPKQSVIDRSVNGLINGNVVPCNGEISGDFLNNPFKQENVLARMVASRITNYPTAWVEGSSPDSDLEFVANTKARVKELQQEAERLEKAFRSYHRRVIKNSAKSPLAAKSPPSLHLLEAFKNITSSSPERHIFGEDRVVSEQPQVGTLEERNDVVEALTGSAASRLRGGTSSRRLSSTPLPKAKRSLESEMYLEGLGRSHIASPSPCPDRMPLPSPTESRHSLSIPPVSSPPEQKVGLYRRQTELQDKSEFSDVDKLAFKDNEEFESSFESAGNMPRQLEMGGLSPAGDMSHVDAAAAAVPLSYQHPSVDQKQIEEQKEEEKIREQQVKERRQREERRQSNLQEVLERERRELEKLYQERKMIEESLKIKIKKELEMENELEMSNQEIKDKSAHSENPLEKYMKIIQQEQDQESADKSSKKMVQEGSLVDTLQSSDKVESLTGFSHEELDDSW
In the case of B4, in assay [2], the binding result was “binds”.

B5: SSX2IP (protein, UniProt Q9Y2D8 1-614)
chain: MGDWMTVTDPGLSSESKTISQYTSETKMSPSSLYSQQVLCSSIPLSKNVHSFFSAFCTEDNIEQSISYLDQELTTFGFPSLYEESKGKETKRELNIVAVLNCMNELLVLQRKNLLAQENVETQNLKLGSDMDHLQSCYSKLKEQLETSRREMIGLQERDRQLQCKNRNLHQLLKNEKDEVQKLQNIIASRATQYNHDMKRKEREYNKLKERLHQLVMNKKDKKIAMDILNYVGRADGKRGSWRTGKTEARNEDEMYKILLNDYEYRQKQILMENAELKKVLQQMKKEMISLLSPQKKKPRERVDDSTGTVISDVEEDAGELSRESMWDLSCETVREQLTNSIRKQWRILKSHVEKLDNQVSKVHLEGFNDEDVISRQDHEQETEKLELEIQQCKEMIKTQQQLLQQQLATAYDDDTTSLLRDCYLLEEKERLKEEWSLFKEQKKNFERERRSFTEAAIRLGLERKAFEEERASWLKQQFLNMTTFDHQNSENVKLFSAFSGSSDWDNLIVHSRQPQKKPHSVSNGSPVCMSKLTKSLPASPSTSDFCQTRSCISEHSSINVLNITAEEIKPNQVGGECTNQKWSVASRPGSQEGCYSGCSLSYTNSHVEKDDLP
Regarding B5, the binding result in assay [2] is listed as “binds”.

B6: Centrobin (CNTROB) (protein, UniProt Q8N137 1-903)
chain: MATSADSPSSPLGAEDLLSDSSEPPGLNQVSSEVTSQLYASLRLSRQAEATARAQLYLPSTSPPHEGLDGFAQELSRSLSVGLEKNLKKKDGSKHIFEMESVRGQLQTMLQTSRDTAYRDPLIPGAGSERREEDSFDSDSTATLLNTRPLQDLSPSSSAQALEELFPRYTSLRPGPPLNPPDFQGLRDALDSEHTRRKHCERHIQSLQTRVLELQQQLAVAVAADRKKDTMIEQLDKTLARVVEGWNRHEAERTEVLRGLQEEHQAAELTRSKQQETVTRLEQSLSEAMEALNREQESARLQQRERETLEEERQALTLRLEAEQQRCCVLQEERDAARAGQLSEHRELETLRAALEEERQTWAQQEHQLKEHYQALQEESQAQLEREKEKSQREAQAAWETQHQLALVQSEVRRLEGELDTARRERDALQLEMSLVQARYESQRIQLESELAVQLEQRVTERLAQAQESSLRQAASLREHHRKQLQDLSGQHQQELASQLAQFKVEMAEREERQQQVAEDYELRLAREQARVCELQSGNQQLEEQRVELVERLQAMLQAHWDEANQLLSTTLPPPNPPAPPAGPSSPGPQEPEKEERRVWTMPPMAVALKPVLQQSREARDELPGAPPVLCSSSSDLSLLLGPSFQSQHSFQPLEPKPDLTSSTAGAFSALGAFHPDHRAERPFPEEDPGPDGEGLLKQGLPPAQLEGLKNFLHQLLETVPQNNENPSVDLLPPKSGPLTVPSWEEAPQVPRIPPPVHKTKVPLAMASSLFRVPEPPSSHSQGSGPSSGSPERGGDGLTFPRQLMEVSQLLRLYQARGWGALPAEDLLLYLKRLEHSGTDGRGDNVPRRNTDSRLGEIPRKEIPSQAVPRRLATAPKTEKPPARKKSGHPAPSSMRSRGGVWR
In the case of B6, the binding entry in assay [2] was “binds”.
